Residue numbers refer to the chain shown, from its start. Results are given in words; binding and its absence hold for the method and conditions named. In cells and extracts the contact can be indirect. Some binding calls cover weakened binding; strength is not graded here.

Sequences of proteins named here, by UniProt entry; tags and fusion partners are left off. Residues count along the entry.
UniProt P05067, residues 672-711: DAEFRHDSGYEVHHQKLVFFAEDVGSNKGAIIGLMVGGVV
UniProt P10997, residues 34-70: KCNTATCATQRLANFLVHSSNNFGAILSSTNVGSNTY

Assay [1] concerns the target synthetic Aβ(1-40) amyloid fibrils (UniProt P05067). Briefly: pulldown, fibrils pre-incubated with peptope, detected with 125I-7D8.
Assay [2] has as its target synthetic islet amyloid polypeptide (IAPP) fibrils (UniProt P10997). The assay is described as above.
The target in assay [3] is synthetic Aβ(1-40) amyloid fibrils (UniProt P05067). Briefly: pulldown with 125I-peptide, 0.15 M and 1.0 M NaCl.
Assay [4] deals with synthetic islet amyloid polypeptide (IAPP) fibrils (UniProt P10997). Briefly: pulldown with 125I-peptide, 0.15 M and 1.0 M NaCl.

B1: peptope p76 (peptide)
peptide: GGGYSKAQKAQAKQAKQAQKAQKAQAKQAKQGGGHEDT
For B1, the binding result in assay [1] and in assay [2] was “binds” throughout.

B2: peptope p78 (peptide)
peptide: B1 peptide with G32V, G33T, G34V
On to B2, for which the binding result in assay [1] and in assay [2] was “binds” each time.

B3: peptope p77 (peptide)
peptide: B1 peptide with G33P
As for B3, the binding result in assay [1] and in assay [2] was “binds” in each case.

B4: peptope p75 (peptide)
peptide: GGGYSKAQKAQAKQAKQAQKAQKAQAKQAKQAQHEDT
As to B4, the binding result in assay [1] and in assay [2] was “binds” each time.

B5: peptide p5+14 (peptide)
peptide: KAQKAQAKQAKQAQKAQKAQAKQAKQAQKAQKAQAKQAKQ
As to B5, the binding result in assay [3] and in assay [4] was “binds” in each case.

B6: peptide p66 (11-1F4 peptope) (peptide)
peptide: KAQKAQAKQAKQAQKAQKAQAKQAKQAQKAQKAQAKQAKQSVTVVTKHYAAFPENLLI
In the case of B6, the binding entry in assay [3] and in assay [4] was “binds” each time.

The record behind these values is US20160243230A1.
